Results as given in the supplement of paper PMC10849652.
Some of the results follow.

Amino acid sequences for entries named in this document (tags omitted). A change or cut given only in a name is not applied to a line headed by its entry.
UniProt Q9P0L0: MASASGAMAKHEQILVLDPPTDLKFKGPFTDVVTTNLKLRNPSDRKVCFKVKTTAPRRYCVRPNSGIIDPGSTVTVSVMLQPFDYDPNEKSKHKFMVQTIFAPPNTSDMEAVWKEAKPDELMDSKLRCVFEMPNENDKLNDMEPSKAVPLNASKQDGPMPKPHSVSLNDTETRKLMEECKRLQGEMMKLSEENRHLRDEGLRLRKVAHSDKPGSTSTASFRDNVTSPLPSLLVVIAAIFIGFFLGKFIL
UniProt A0JNW5: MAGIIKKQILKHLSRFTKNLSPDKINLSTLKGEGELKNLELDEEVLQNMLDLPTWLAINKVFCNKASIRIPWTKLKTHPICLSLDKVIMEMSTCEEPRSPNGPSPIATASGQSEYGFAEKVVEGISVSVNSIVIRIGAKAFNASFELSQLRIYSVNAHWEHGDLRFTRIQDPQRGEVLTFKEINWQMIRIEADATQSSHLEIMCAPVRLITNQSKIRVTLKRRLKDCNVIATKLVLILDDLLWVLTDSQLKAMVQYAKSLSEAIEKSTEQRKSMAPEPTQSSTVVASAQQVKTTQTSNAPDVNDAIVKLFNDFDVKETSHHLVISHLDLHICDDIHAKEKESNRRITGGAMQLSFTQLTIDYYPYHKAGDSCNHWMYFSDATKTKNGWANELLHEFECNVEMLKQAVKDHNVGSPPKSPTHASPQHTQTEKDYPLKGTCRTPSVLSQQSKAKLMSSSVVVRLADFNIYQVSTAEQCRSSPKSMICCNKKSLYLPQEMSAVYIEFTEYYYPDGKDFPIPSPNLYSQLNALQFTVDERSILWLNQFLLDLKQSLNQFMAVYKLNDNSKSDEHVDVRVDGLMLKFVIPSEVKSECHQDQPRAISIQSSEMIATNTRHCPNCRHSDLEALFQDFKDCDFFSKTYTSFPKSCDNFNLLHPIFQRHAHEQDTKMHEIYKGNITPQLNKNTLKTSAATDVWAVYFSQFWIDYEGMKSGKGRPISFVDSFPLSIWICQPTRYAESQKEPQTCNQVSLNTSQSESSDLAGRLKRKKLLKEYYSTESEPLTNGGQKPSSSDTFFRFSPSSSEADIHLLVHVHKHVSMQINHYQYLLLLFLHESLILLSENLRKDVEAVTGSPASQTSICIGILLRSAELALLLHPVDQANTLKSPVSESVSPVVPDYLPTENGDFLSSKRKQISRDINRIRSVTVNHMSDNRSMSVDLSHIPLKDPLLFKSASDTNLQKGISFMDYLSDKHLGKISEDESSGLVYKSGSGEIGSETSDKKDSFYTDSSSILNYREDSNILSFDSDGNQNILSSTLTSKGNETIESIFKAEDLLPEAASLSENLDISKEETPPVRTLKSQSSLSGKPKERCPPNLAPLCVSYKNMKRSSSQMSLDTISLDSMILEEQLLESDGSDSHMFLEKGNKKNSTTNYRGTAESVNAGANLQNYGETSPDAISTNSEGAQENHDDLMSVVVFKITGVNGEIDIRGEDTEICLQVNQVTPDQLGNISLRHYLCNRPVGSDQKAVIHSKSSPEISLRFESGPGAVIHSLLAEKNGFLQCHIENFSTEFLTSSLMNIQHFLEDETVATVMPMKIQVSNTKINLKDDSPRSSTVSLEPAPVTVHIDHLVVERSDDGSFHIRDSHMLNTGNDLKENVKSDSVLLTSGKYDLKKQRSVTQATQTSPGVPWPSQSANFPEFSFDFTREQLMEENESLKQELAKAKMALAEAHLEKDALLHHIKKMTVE
UniProt Q93008, whole entry, looked up: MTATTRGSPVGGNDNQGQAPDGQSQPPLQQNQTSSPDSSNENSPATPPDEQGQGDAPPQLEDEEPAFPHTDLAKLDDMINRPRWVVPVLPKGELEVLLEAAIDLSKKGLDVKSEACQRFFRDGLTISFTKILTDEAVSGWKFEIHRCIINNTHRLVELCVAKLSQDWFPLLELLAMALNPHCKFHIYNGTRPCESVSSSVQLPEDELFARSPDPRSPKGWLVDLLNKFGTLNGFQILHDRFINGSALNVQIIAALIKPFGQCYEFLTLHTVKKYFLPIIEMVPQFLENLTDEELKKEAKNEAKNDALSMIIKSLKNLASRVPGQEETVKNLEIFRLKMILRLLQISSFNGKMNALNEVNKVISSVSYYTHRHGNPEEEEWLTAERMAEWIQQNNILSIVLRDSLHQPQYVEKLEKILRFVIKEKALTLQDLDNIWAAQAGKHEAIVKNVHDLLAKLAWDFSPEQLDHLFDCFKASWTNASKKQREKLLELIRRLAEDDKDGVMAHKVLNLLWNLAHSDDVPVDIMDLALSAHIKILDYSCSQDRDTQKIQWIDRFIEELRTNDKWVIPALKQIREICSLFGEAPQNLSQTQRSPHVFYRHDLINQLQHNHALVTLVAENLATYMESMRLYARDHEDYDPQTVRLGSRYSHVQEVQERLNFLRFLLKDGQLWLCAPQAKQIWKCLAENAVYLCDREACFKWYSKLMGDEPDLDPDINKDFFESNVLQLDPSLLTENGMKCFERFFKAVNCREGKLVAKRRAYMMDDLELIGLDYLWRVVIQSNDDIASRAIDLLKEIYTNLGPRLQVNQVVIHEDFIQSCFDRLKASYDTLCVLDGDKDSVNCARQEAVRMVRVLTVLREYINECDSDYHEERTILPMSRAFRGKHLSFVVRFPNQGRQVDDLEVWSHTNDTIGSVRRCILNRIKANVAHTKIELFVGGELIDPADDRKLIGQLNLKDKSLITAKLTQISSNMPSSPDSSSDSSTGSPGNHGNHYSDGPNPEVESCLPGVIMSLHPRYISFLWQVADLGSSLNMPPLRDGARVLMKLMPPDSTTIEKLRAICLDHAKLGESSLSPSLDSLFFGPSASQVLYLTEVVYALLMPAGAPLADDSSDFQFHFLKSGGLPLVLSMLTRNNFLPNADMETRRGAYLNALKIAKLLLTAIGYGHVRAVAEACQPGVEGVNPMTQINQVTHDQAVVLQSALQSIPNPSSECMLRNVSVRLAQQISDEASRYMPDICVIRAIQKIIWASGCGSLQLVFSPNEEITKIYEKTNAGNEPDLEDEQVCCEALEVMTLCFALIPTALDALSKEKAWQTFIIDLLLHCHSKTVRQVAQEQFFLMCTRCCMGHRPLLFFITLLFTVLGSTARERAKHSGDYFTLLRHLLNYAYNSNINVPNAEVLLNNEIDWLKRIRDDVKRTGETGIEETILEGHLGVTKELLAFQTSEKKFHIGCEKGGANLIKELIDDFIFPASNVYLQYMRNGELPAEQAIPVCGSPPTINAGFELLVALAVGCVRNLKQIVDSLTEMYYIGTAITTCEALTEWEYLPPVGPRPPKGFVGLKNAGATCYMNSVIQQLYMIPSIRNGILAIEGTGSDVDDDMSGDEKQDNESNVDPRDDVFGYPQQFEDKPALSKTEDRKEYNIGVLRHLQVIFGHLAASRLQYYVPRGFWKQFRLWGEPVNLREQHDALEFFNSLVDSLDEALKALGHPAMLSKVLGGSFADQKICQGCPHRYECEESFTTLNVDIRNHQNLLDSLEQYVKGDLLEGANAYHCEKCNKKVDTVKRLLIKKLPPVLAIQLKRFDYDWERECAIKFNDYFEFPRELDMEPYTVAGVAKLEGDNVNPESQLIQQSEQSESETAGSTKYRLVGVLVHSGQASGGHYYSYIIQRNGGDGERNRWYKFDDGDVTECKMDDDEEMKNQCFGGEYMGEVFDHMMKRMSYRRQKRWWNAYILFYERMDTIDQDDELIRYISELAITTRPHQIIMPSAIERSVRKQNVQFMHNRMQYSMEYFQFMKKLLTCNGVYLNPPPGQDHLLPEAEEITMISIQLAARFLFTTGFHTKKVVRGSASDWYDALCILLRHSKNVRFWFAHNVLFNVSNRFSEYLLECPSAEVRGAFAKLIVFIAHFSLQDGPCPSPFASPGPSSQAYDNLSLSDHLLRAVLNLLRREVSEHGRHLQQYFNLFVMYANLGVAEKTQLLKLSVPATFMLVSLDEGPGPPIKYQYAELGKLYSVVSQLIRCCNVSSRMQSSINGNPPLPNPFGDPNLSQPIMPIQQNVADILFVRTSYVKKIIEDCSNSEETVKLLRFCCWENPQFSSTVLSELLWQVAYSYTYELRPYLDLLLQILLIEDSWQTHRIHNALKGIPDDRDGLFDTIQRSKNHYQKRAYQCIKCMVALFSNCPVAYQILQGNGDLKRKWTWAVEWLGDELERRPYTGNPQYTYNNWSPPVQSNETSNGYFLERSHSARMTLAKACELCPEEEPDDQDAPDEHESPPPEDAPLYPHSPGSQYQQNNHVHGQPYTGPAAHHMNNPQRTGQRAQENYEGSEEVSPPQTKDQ
UniProt Q9NZ43: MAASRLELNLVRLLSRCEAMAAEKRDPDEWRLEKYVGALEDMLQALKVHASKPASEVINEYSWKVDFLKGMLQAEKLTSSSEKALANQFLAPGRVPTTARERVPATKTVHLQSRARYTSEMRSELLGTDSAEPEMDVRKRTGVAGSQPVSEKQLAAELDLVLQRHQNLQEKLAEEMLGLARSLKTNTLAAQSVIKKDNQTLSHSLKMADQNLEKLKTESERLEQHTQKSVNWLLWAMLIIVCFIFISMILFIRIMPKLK
UniProt Q9NQZ2: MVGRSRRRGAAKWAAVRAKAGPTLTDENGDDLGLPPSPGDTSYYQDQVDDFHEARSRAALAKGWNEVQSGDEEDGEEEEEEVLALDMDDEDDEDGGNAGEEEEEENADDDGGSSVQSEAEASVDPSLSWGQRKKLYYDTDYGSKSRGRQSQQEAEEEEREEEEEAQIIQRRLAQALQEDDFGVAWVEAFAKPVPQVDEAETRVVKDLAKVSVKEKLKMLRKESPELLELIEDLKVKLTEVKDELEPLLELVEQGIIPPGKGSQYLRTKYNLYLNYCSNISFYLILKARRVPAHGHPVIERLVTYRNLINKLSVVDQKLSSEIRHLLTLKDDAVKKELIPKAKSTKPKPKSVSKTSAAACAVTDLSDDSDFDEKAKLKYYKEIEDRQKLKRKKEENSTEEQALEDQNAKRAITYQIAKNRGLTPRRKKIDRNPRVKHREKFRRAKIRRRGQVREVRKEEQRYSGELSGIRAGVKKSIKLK
UniProt O60763: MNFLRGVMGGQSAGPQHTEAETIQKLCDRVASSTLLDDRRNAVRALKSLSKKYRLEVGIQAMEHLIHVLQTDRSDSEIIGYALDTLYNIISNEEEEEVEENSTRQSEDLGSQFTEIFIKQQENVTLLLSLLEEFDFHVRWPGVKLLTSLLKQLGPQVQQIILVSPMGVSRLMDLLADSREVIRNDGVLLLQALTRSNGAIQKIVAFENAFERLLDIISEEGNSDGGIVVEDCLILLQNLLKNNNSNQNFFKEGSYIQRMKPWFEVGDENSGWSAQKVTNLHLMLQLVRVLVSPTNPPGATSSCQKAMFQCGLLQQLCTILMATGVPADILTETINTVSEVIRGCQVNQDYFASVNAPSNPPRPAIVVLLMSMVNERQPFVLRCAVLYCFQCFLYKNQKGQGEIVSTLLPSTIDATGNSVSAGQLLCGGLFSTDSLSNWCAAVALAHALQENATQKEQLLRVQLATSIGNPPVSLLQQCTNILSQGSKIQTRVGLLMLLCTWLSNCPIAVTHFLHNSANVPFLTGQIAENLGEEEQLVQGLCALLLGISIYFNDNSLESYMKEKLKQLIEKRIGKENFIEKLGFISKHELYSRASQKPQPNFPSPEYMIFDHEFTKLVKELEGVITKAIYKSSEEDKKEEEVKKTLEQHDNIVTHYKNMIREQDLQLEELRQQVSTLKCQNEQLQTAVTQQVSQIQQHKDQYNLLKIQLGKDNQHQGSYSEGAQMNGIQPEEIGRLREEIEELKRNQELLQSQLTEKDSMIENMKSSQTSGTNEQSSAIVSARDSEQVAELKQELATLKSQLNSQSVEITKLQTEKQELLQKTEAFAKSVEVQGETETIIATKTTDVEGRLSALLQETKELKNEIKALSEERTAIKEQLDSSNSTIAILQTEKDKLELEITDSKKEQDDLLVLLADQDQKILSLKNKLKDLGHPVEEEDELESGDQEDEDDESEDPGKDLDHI
UniProt Q9BZM6: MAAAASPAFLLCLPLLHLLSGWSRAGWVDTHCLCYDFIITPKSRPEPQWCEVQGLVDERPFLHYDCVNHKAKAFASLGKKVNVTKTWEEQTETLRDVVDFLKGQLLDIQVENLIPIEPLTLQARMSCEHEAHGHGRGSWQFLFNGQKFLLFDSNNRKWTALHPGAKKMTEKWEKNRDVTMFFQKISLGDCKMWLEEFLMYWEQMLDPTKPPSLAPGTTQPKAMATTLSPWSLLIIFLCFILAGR
UniProt O14957: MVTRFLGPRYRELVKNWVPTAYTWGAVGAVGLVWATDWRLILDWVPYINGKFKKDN
UniProt P61960, whole entry, looked up: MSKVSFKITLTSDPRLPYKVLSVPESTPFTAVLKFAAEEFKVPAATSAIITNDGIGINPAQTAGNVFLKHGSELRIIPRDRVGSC
UniProt Q9BZM5, whole entry, looked up: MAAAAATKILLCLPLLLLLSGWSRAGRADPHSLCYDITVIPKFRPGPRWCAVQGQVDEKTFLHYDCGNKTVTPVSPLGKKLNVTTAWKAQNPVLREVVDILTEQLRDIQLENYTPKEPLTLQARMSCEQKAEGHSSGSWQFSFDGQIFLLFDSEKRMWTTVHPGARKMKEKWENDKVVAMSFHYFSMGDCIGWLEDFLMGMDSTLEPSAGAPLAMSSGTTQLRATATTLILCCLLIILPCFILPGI

Key:
Assay in all cases: log2 fold change, soluble protein after heating vs DMSO (PISA); higher = thermal stabilisation; K562 lysate, 10 uM; active = over 0.2 and 3.5 SD of the protein, either way, in both replicates (recomputed)
erlotinib = compound: C#Cc1cccc(Nc2ncnc3cc(OCCOC)c(OCCOC)cc23)c1 [erlotinib]
Method in brief: (§1)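 Pellets of K562 cells were dounce-homogenised in PBS pH 7.4 with 1 mM MgCl2, and the crude extract was held at 1 mg/mL protein for a 30 min treatment with 10 μM compound. Aliquots were heated for 3 min over 48°C-58°C and pooled before NP-40 was added to 0.5% at 4°C. The supernatant from 21,000xg for 90 min was quantified by TMTpro 16plex LC-MS/MS with channel sums equalised. Values are reported from duplicates as log-two fold change in thermal stability relative to solvent controls.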

[1] = compound: C/C(=N\NC(=O)C1=CC(=CC=C1)S(=O)(=O)N2CCOCC2)/C3=C(C=CC(=C3)Cl)O
Method in brief: as §1

[2] = compound: C1=CC(=CC=C1C2=NC3=C(N2)C=C(C=C3)C(=O)N)OC4=CC=C(C=C4)Cl
Method in brief: as §1

[3] = compound: C1=CC2=C(C=CC(=C2)/C=C\3/C(=O)NC(=NCC4=CC=CS4)S3)N=C1
Method in brief: as §1

[4] = compound: C1=CC2=NC=CN=C2C=C1/C=C/3\C(=O)NC(=O)S3
Method in brief: as §1

[5] = compound: C1=CC=C(C=C1)C2=NC(=C(N2)C3=CC=NC=C3)C4=CC(=C(C=C4)Cl)O
Method in brief: as §1

[6] = compound: C1=CC=C2C(=C1)C3=NNC4=CC=CC(=C43)C2=O
Method in brief: as §1

[7] = compound: C1CCN(C1)C(=O)NC2=CC=CC(=C2)NC3=NC=C(C(=N3)NCCC4=CN=CN4)Br
Method in brief: as §1

[8] = compound: C1CN(CCC1(CC2=CC=C(C=C2)Cl)N)C3=NC=NC4=C3C=CN4
Method in brief: as §1

IRAK-1-4 Inhibitor I = compound: C1COCCN1CCN2C3=CC=CC=C3N=C2NC(=O)C4=CC(=CC=C4)[N+](=O)[O-] [IRAK-1-4 Inhibitor I]
Method in brief: as §1

Measured: log2 fold change

VAPA isoform 2 (UniProt Q9P0L0)
inactive: erlotinib 0.003 | [1] -0.015 | [2] 0.046 | [3] -0.007 | [4] 0.003 | [5] -0.018 | [6] -0.108 | [7] -0.015 | [8] 0.019 | IRAK-1-4 Inhibitor I 0.001

UHRF1BP1L (UniProt A0JNW5)
inactive: erlotinib 0.03 | [1] -0.001 | [2] 0 | [3] -0.033 | [4] 0.003 | [5] -0.006 | [6] -0.02 | [7] -0.013 | [8] 0.017 | IRAK-1-4 Inhibitor I 0.029

VAV3 isoform 4 (UniProt Q9UKW4)
inactive: erlotinib 0.035 | [1] 1.07 | [2] -0.029 | [3] -0.144 | [4] 0.117 | [5] 0.012 | [6] -0.133 | [7] 0.148 | [8] -0.08 | IRAK-1-4 Inhibitor I -0.017

USP9X (UniProt Q93008)
inactive: erlotinib 0.034 | [1] 0.013 | [2] -0.008 | [3] 0.015 | [4] 0.014 | [5] 0.003 | [6] -0.019 | [7] -0.005 | [8] -0.013 | IRAK-1-4 Inhibitor I 0.022

USE1 (UniProt Q9NZ43)
active: [1] 0.31
inactive: erlotinib 0.019 | [2] -0.026 | [3] -0.062 | [4] 0 | [5] -0.038 | [6] -0.06 | [7] 0.019 | [8] 0.025 | IRAK-1-4 Inhibitor I 0.056

UTP3 (UniProt Q9NQZ2)
inactive: erlotinib -0.051 | [1] -1.41 | [2] -0.088 | [3] -0.063 | [4] -0.039 | [5] -0.018 | [6] 0.021 | [7] -0.067 | [8] -0.09 | IRAK-1-4 Inhibitor I -0.041

UNC5B (UniProt Q8IZJ1)
inactive: erlotinib 0.004 | [1] -0.062 | [2] 0.012 | [3] -0.015 | [4] 0.013 | [5] -0.025 | [6] -0.2 | [7] 0.053 | [8] -0.035 | IRAK-1-4 Inhibitor I 0.015

VDAC2 isoform 2 (UniProt P45880)
inactive: erlotinib 0.015 | [1] 0.038 | [2] -0.017 | [3] -0.004 | [4] -0.005 | [5] 0.002 | [6] -0.006 | [7] 0.019 | [8] 0.013 | IRAK-1-4 Inhibitor I 0.021

VIM (UniProt P08670)
inactive: erlotinib 0.003 | [1] 0.019 | [2] 0.007 | [3] -0.026 | [4] -0.001 | [5] -0.009 | [6] -0.005 | [7] 0.063 | [8] 0.024 | IRAK-1-4 Inhibitor I -0.01

UPRT (UniProt Q96BW1)
inactive: erlotinib -0.015 | [1] 0.203 | [2] -0.074 | [3] -0.007 | [4] -0.095 | [5] 0 | [6] -0.103 | [7] 0.043 | [8] 0.002 | IRAK-1-4 Inhibitor I 0.003

UNK (UniProt Q9C0B0)
inactive: erlotinib -0.012 | [1] -0.053 | [2] 0.11 | [3] 0.003 | [4] 0.012 | [5] -0.007 | [6] 0.014 | [7] 0.003 | [8] 0.01 | IRAK-1-4 Inhibitor I -0.083

UXS1 isoform 2 (UniProt Q8NBZ7)
inactive: erlotinib 0.045 | [1] 0.099 | [2] -0.034 | [3] -0.019 | [4] 0.107 | [5] 0.04 | [6] -0.047 | [7] -0.025 | [8] -0.08 | IRAK-1-4 Inhibitor I 0.046

VDAC2 (UniProt Q5JSD1)
inactive: erlotinib 0.058 | [1] 0 | [2] 0.057 | [3] 0.074 | [4] 0.032 | [5] -0.001 | [6] -0.025 | [7] -0.032 | [8] 0.029 | IRAK-1-4 Inhibitor I 0.033

USO1 isoform 2 (UniProt O60763)
inactive: erlotinib 0 | [1] 0.011 | [2] 0.005 | [3] 0 | [4] -0.007 | [5] -0.002 | [6] -0.012 | [7] -0.004 | [8] 0.002 | IRAK-1-4 Inhibitor I -0.015

VAPA (UniProt Q9P0L0)
inactive: erlotinib -0.049 | [1] 0.061 | [2] -0.101 | [3] 0.006 | [4] 0.002 | [5] 0.025 | [6] -0.072 | [7] 0.043 | [8] -0.037 | IRAK-1-4 Inhibitor I -0.091

ULBP1 (UniProt Q9BZM6)
inactive: erlotinib 0.036 | [1] 0.057 | [2] -0.008 | [3] 0.004 | [4] -0.007 | [5] 0.076 | [6] 0.027 | [7] -0.024 | [8] 0.035 | IRAK-1-4 Inhibitor I 0.023

UQCR11 (UniProt O14957)
inactive: erlotinib 0.056 | [1] -0.045 | [2] -0.055 | [3] 0.009 | [4] 0.271 | [5] 0.004 | [6] -0.039 | [7] -0.014 | [8] 0.038 | IRAK-1-4 Inhibitor I -0.016

VAMP3 (UniProt Q15836)
inactive: erlotinib -0.007 | [1] -0.034 | [2] 0.073 | [3] 0.002 | [4] 0.015 | [5] -0.044 | [6] -0.105 | [7] 0.018 | [8] -0.025 | IRAK-1-4 Inhibitor I 0.067

VEZF1 (UniProt Q14119)
inactive: erlotinib -0.084 | [1] 0.049 | [2] -0.001 | [3] -0.059 | [4] -0.053 | [5] 0.036 | [6] 0.053 | [7] 0.027 | [8] -0.168 | IRAK-1-4 Inhibitor I 0.04

VCL (UniProt P18206)
inactive: erlotinib -0.019 | [1] -0.03 | [2] 0.005 | [3] -0.004 | [4] -0.002 | [5] -0.011 | [6] 0.012 | [7] 0.011 | [8] -0.008 | IRAK-1-4 Inhibitor I 0.006

Reprinted from above (5 entries):
UNC5B (UniProt Q8IZJ1)
inactive: erlotinib 0.004 | [1] -0.062 | [2] 0.012 | [3] -0.015 | [4] 0.013 | [5] -0.025 | [6] -0.2 | [7] 0.053 | [8] -0.035 | IRAK-1-4 Inhibitor I 0.015

VDAC2 isoform 2 (UniProt P45880)
inactive: erlotinib 0.015 | [1] 0.038 | [2] -0.017 | [3] -0.004 | [4] -0.005 | [5] 0.002 | [6] -0.006 | [7] 0.019 | [8] 0.013 | IRAK-1-4 Inhibitor I 0.021

VIM (UniProt P08670)
inactive: erlotinib 0.003 | [1] 0.019 | [2] 0.007 | [3] -0.026 | [4] -0.001 | [5] -0.009 | [6] -0.005 | [7] 0.063 | [8] 0.024 | IRAK-1-4 Inhibitor I -0.01

UPRT (UniProt Q96BW1)
inactive: erlotinib -0.015 | [1] 0.203 | [2] -0.074 | [3] -0.007 | [4] -0.095 | [5] 0 | [6] -0.103 | [7] 0.043 | [8] 0.002 | IRAK-1-4 Inhibitor I 0.003

UNK (UniProt Q9C0B0)
inactive: erlotinib -0.012 | [1] -0.053 | [2] 0.11 | [3] 0.003 | [4] 0.012 | [5] -0.007 | [6] 0.014 | [7] 0.003 | [8] 0.01 | IRAK-1-4 Inhibitor I -0.083

Next records:

UGT8 (UniProt Q16880)
inactive: erlotinib 0.039 | [1] -0.012 | [2] 0.029 | [3] 0.008 | [4] -0.179 | [5] 0.237 | [6] -0.084 | [7] -0.035 | [8] 0.053 | IRAK-1-4 Inhibitor I 0.232

UFM1 (UniProt P61960)
inactive: erlotinib 0.035 | [1] 0.078 | [2] -0.003 | [3] 0.085 | [4] 0.029 | [5] -0.013 | [6] 0.123 | [7] 0.066 | [8] 0.013 | IRAK-1-4 Inhibitor I -0.009

ULBP2 (UniProt Q9BZM5)
inactive: erlotinib 0.017 | [1] 0.061 | [2] -0.125 | [3] 0.014 | [4] 0.001 | [5] 0.018 | [6] 0.018 | [7] -0.004 | [8] -0.048 | IRAK-1-4 Inhibitor I 0.025

UTP20 (UniProt O75691)
inactive: erlotinib 0.078 | [1] -0.182 | [2] -0.098 | [3] -0.041 | [4] 0.027 | [5] 0.035 | [6] 0.013 | [7] -0.004 | [8] 0.077 | IRAK-1-4 Inhibitor I 0.006

UFC1 (UniProt Q9Y3C8)
inactive: erlotinib -0.071 | [1] 0.049 | [2] -0.003 | [3] 0.01 | [4] -0.021 | [5] -0.014 | [6] 0.008 | [7] -0.003 | [8] -0.034 | IRAK-1-4 Inhibitor I 0.001

VIRMA (UniProt Q69YN4)
inactive: erlotinib 0 | [1] 0.043 | [2] 0.002 | [3] 0.006 | [4] -0.075 | [5] -0.029 | [6] 0.017 | [7] -0.017 | [8] 0.058 | IRAK-1-4 Inhibitor I 0.008

URM1 isoform 2 (UniProt Q9BTM9)
inactive: erlotinib 0.03 | [1] 0.008 | [2] 0.065 | [3] -0.126 | [4] -0.049 | [5] -0.014 | [6] -0.132 | [7] 0.015 | [8] 0.068 | IRAK-1-4 Inhibitor I -0.068

VAPB (UniProt O95292)
inactive: erlotinib 0.005 | [1] -0.017 | [2] 0.043 | [3] 0.01 | [4] -0.019 | [5] -0.031 | [6] -0.023 | [7] -0.033 | [8] -0.055 | IRAK-1-4 Inhibitor I -0.018

USP3 (UniProt Q9Y6I4)
inactive: erlotinib -0.001 | [1] 0.05 | [2] 0.033 | [3] 0.031 | [4] 0.018 | [5] 0.011 | [6] 0.014 | [7] -0.037 | [8] 0.035 | IRAK-1-4 Inhibitor I -0.044

UTP6 (UniProt Q9NYH9)
inactive: erlotinib 0.004 | [1] -0.001 | [2] -0.035 | [3] 0.109 | [4] 0.185 | [5] 0.012 | [6] -0.105 | [7] -0.016 | [8] 0.017 | IRAK-1-4 Inhibitor I -0.026
